PMC3707052 (Alzheimer's Research & Therapy, 2013)
Several values for one entry are separate records, joined by “and”; a condition that tells them apart may be missing. Equal entries are not always repeated.

Key:
gamma-secretase [1] = assay: Single oral dose PK/PD in Sprague Dawley rats (brain Aβ, compound exposure); format: in vivo; details: 24 hrs post dose; for %Aβ40 lowering / %Aβ38 lowering / %Aβ42 lowering: rat brain, vs vehicle; for Brain exposure / Plasma exposure: rat
Description: Female transgenic mice (Tg2576, 3 months of age; n = 20), wild-type male CD-1 mice (six weeks of age; n = 8 to 12) or wild-type male Sprague Dawley rats (200 to 225 g body weight; n = 12) were utilized to assess in vivo efficacy.
For wild-type rat and mouse studies, all animals were acclimated to the test facility for a minimum of two days prior to initiation of the study. Compounds were dosed orally in 10:20:70 ethanol/solutol/water or 10:20:70 ethanol/cremaphor/water via oral gavage. Samples were harvested at either at 6 or 24 hrs post dose for Aβ and compound exposure measurements. Blood samples were collected into K2ethylenediaminetetraacetic acid (EDTA) and stored on wet ice until processed to plasma by centrifugation (3,500 rpm at 5°C) within 30 minutes of collection. Each brain was dissected into three parts: left and right hemispheres and cerebellum. Brain tissues were rinsed with ice cold PBS (without Mg^2+ or Ca^2+), blotted dry and weighed. Plasma and cerebella were analyzed for parent drug via liquid chromatography/tandem mass spectrometry (LC/MS/MS). Parent drug levels were compared to a standard curve to establish the plasma and brain levels.
This protocol is a modification of protocols described by Lanz and Schachter and Rogers et al.. Frozen hemispheres were weighed into tared homogenization tubes (MP Biomedicals#6933050 for rat; MP Biomedicals, Solon, OH, USA) and (Simport#T501-4AT; Simport, Beloeil, Qc, Canada) containing one 5-mm stainless steel bead (Qiagen#69989 for mouse). For every gram of brain, 10 mLs of either 6 M guanidine hydrochloride (wild-type rat and mouse) or 0.2% diethyl amine in 50 mM NaCl (transgenic mouse) was added to the brain-containing tubes on wet ice. Rat hemispheres were homogenized for one minute and mouse hemispheres were homogenized for 30 seconds at the 6.5 setting using the FastPrep-24 Tissue and Cell homogenizer (MP Biomedicals#116004500). Homogenates were rocked for 2 hrs at 4°C, then pre-cleared by ultracentrifugation at 100,000 × g for one hour at 4°C. Pre-cleared wild-type rat and mouse homogenates were concentrated over solid phase extraction (SPE) columns (Oasis HLB 96-well SPE plate 30 μm, Waters#WAT058951; Waters Corp., Milford, MA, USA). Briefly, SPE columns were prepared by wetting with 1 mL of 100% methanol followed by dH20 using vacuum to pull liquids through. Brain homogenates were then added to the prepared columns (1.0 mL from rat and 0.7 mL from wild-type mouse). Columns were washed twice with 1 mL of 10% methanol followed by two 1 mL washes with 30% methanol. Labeled eluent collection tubes (Costar cluster tubes #4413; Corning Inc., Corning, NY, USA) were placed under SPE columns and samples were eluted under very mild vacuum with 300 μL of 2% NH4OH/90% methanol. Eluents were dried to films under vacuum with no heat in a speed vacuum microcentrifuge. Films were resuspended in 150 μL of Meso Scale Discovery (MSD, Gaithersburg, MD, USA) blocking buffer (1% BSA in MSD wash buffer) for one hour at room temperature with occasional vortexing. Transgenic mouse plasma (50 μL) was extracted in 500 μL of 6 M guanidine hydrochloride briefly at room temperature and then 450 μL was concentrated over SPE columns and dried to films as described above. Transgenic plasma films were resuspended in 225 μL of MSD blocking buffer. Pre-cleared transgenic mouse brain homogenates were diluted and neutralized as follows. A volume of 45 μL of pre-cleared transgenic mouse brain homogenates were diluted into 450 μL of blocking buffer and were neutralized with 5 μL of 0.5 M Tris pH 6.8. For Aβ38, Aβ40 and Aβ42 measurements, MSD 96-well multi-spot Human/Rodent (4G8) Aβ triplex ultra-sensitive ELISA plates, which are pre-spotted with three separate spots in each well containing capture antibodies against the unique C-terminal ends of Aβ38, Aβ40 and Aβ42, respectively, were blocked with MSD blocking buffer for one hour at room temperature with orbital shaking. […]

[2] = Pharmacokinetic properties in rat; format: in vivo
gamma-secretase [3] = assay: Six-day once-a-day oral dosing PK/PD in Tg2576 mice (brain, plasma, CSF Aβ); format: in vivo; details: for %Aβ38 lowering / %Aβ40 lowering / %Aβ42 lowering: 24 hrs, vs vehicle; for Brain exposure / Plasma exposure: 24 hrs post final dose
[4] = Plasma protein binding (in vitro studies); format: in vitro ADME
[5] = Pharmacokinetic properties in mouse; format: in vivo
[6] = single oral dose 10 mg/kg, 10 mg/kg
[7] = single oral dose 30 mg/kg, 30 mg/kg
[8] = single oral dose 100 mg/kg, 100 mg/kg
[9] = Tg2576 mouse CSF, 10 mg/kg oral QD six days
[10] = Tg2576 mouse CSF, 30 mg/kg oral QD six days
[11] = Tg2576 mouse CSF, 60 mg/kg oral QD six days
[12] = Tg2576 mouse CSF, 90 mg/kg oral QD six days
[13] = Tg2576 mouse brain, 10 mg/kg oral QD six days
[14] = Tg2576 mouse brain, 30 mg/kg oral QD six days
[15] = Tg2576 mouse brain, 60 mg/kg oral QD six days
[16] = Tg2576 mouse brain, 90 mg/kg oral QD six days
[17] = Tg2576 mouse plasma, 10 mg/kg oral QD six days
[18] = Tg2576 mouse plasma, 30 mg/kg oral QD six days
[19] = Tg2576 mouse plasma, 60 mg/kg oral QD six days, 60 mg/kg
[20] = Tg2576 mouse plasma, 90 mg/kg oral QD six days
[21] = Tg2576 mouse, 10 mg/kg oral QD six days, 10 mg/kg
[22] = Tg2576 mouse, 30 mg/kg oral QD six days
[23] = Tg2576 mouse, 60 mg/kg oral QD six days
[24] = Tg2576 mouse, 90 mg/kg oral QD six days, 90 mg/kg

CCO[C@@H]([C@H]1C[C@@H](C)[C@H]2[C@@H](O1)[C@H](O)[C@@]1(C)[C@@H]3CC[C@H]4C(C)(C)[C@@H](O[C@H]5CN(C6CN(C(C)C)C6)CCO5)CC[C@@]45C[C@@]35CC[C@]21C)C(C)(C)O [SPI-1865]
%Aβ40 lowering (gamma-secretase [1]; single oral dose 10 mg/kg): 1 ± 5% | %Aβ38 lowering (gamma-secretase [1]; [6]): 26 ± 5% | %Aβ42 lowering (gamma-secretase [1]; [6]): 21 ± 6% | %Aβ38 lowering (gamma-secretase [1]; [7]): 36 ± 3% | %Aβ40 lowering (gamma-secretase [1]; [7]): 14 ± 4% | %Aβ42 lowering (gamma-secretase [1]; [7]): 37 ± 5% | %Aβ38 lowering (gamma-secretase [1]; [8]): 47% and 47 ± 5 % | %Aβ40 lowering (gamma-secretase [1]; [8]): 22 ± 5% | %Aβ42 lowering (gamma-secretase [1]; [8]): 50 ± 5% | Brain exposure (gamma-secretase [1]; single oral dose 10 mg/kg): 2.8 ± 0.3 µM | Plasma exposure (gamma-secretase [1]; single oral dose 10 mg/kg): 3.3 ± 0.1 µM | Brain exposure (gamma-secretase [1]; single oral dose 30 mg/kg): 11 ± 1 µM | Plasma exposure (gamma-secretase [1]; single oral dose 30 mg/kg): 8.5 ± 0.3 µM | Brain exposure (gamma-secretase [1]; single oral dose 100 mg/kg): 33 ± 2 µM | Plasma exposure (gamma-secretase [1]; single oral dose 100 mg/kg): 14 ± 1 µM | half-life ([2]; following a single oral dose): > 24 h | T1/2 ([2]; intravenous drug delivery data): 129 h | Volume ([2]; intravenous drug delivery data): 5.8 L/kg | blood-brain barrier crossing (gamma-secretase [3]; Tg2576 mice, levels measured in brain): readily crosses the blood-brain barrier | %Aβ38 lowering (gamma-secretase [3]; [9]): -2 ± 9% | %Aβ40 lowering (gamma-secretase [3]; [9]): -3 ± 9% | %Aβ42 lowering (gamma-secretase [3]; [9]): 1 ± 11% | %Aβ38 lowering (gamma-secretase [3]; [10]): 4 ± 10% | %Aβ40 lowering (gamma-secretase [3]; [10]): 0 ± 11% | %Aβ42 lowering (gamma-secretase [3]; [10]): 6 ± 11% | %Aβ38 lowering (gamma-secretase [3]; [11]): 5 ± 9% | %Aβ40 lowering (gamma-secretase [3]; [11]): -7 ± 12% | %Aβ42 lowering (gamma-secretase [3]; [11]): 22 ± 15% | %Aβ38 lowering (gamma-secretase [3]; [12]): 9 ± 11% | %Aβ40 lowering (gamma-secretase [3]; [12]): 10 ± 13% | %Aβ42 lowering (gamma-secretase [3]; [12]): 33 ± 14% | %Aβ38 lowering (gamma-secretase [3]; [13]): -16 ± 12% | %Aβ40 lowering (gamma-secretase [3]; [13]): -14 ± 11% | %Aβ42 lowering (gamma-secretase [3]; [13]): -9 ± 10% | %Aβ38 lowering (gamma-secretase [3]; [14]): 6 ± 9% | %Aβ40 lowering (gamma-secretase [3]; [14]): 6 ± 9% | %Aβ42 lowering (gamma-secretase [3]; [14]): 7 ± 9% | %Aβ38 lowering (gamma-secretase [3]; [15]): 14 ± 10% | %Aβ40 lowering (gamma-secretase [3]; [15]): 2 ± 10% | %Aβ42 lowering (gamma-secretase [3]; [15]): 19 ± 8% | %Aβ38 lowering (gamma-secretase [3]; [16]): 27 ± 8% | %Aβ40 lowering (gamma-secretase [3]; [16]): 8 ± 9% | %Aβ42 lowering (gamma-secretase [3]; Tg2576 mouse brain, 90 mg/kg oral QD six days, 90 mg/kg): 30% and 30 ± 6% | %Aβ38 lowering (gamma-secretase [3]; [17]): 25 ± 5% | %Aβ40 lowering (gamma-secretase [3]; [17]): 6 ± 7% | %Aβ42 lowering (gamma-secretase [3]; [17]): 25 ± 5 % | %Aβ38 lowering (gamma-secretase [3]; [18]): 26 ± 5% | %Aβ40 lowering (gamma-secretase [3]; [18]): 17 ± 5% | %Aβ42 lowering (gamma-secretase [3]; Tg2576 mouse plasma, 30 mg/kg oral QD six days, 30 mg/kg): 58% and 58 ± 3 % | %Aβ40 lowering (gamma-secretase [3]; Tg2576 mouse plasma, 60 mg/kg oral QD six days): 15 ± 7% | %Aβ38 lowering (gamma-secretase [3]; [19]): 50 ± 2.4% and 50 ± 5 % | %Aβ42 lowering (gamma-secretase [3]; [19]): 71 ± 2% | %Aβ38 lowering (gamma-secretase [3]; [20]): 46 ± 6 % | %Aβ40 lowering (gamma-secretase [3]; [20]): 9 ± 6% | %Aβ42 lowering (gamma-secretase [3]; Tg2576 mouse plasma, 90 mg/kg oral QD six days, 90 mg/kg): 76 ± 2% and 76% | Brain exposure (gamma-secretase [3]; [21]): 0.5 µM and 0.5 ± 0.1 µM | Plasma exposure (gamma-secretase [3]; [21]): 1 µM and 1.1 ± 0.2 µM | free plasma levels (gamma-secretase [3]; Tg2576 mouse, 30 mg/kg group, calculated): 60 nM | Brain exposure (gamma-secretase [3]; [22]): 1.3 ± 0.1 µM | Plasma exposure (gamma-secretase [3]; [22]): 2.5 ± 0.1 µM | Brain exposure (gamma-secretase [3]; [23]): 3.9 ± 0.4 µM | Plasma exposure (gamma-secretase [3]; [23]): 5.4 ± 0.5 µM | free plasma fraction (concentration) (gamma-secretase [3]; Tg2576 mouse, 90 mg/kg dose group, calculated, 90 mg/kg): 154 nM | Brain exposure (gamma-secretase [3]; [24]): 6.9 µM and 6.9 ± 0.6 µM | Plasma exposure (gamma-secretase [3]; [24]): 6.4 ± 0.5 µM and 6.4 µM | free compound in plasma [4]: 2.4% | protein bound in the plasma ([4]; in vitro studies): 97.6% | Tmax [5]: approximately 4 hrs | half-life [5]: 8 h | T1/2 ([5]; intravenous drug delivery data): 8.3 h | Volume ([5]; intravenous drug delivery data): 9.2 L/kg
